Reference: US9918972B2, “Treatment of leukemia with artemisinin derivatives and combinations with other antineoplastic agents” (UNIVERSITY OF MARYLAND, BALTIMORE, priority 2014, dated 2018)

Tested on: MOLM14 cells
Assay: alamarBlue cytotoxicity assay, single-drug IC50, 48 h
Assay type: cell-based
Details: Homo sapiens, MOLM-14
Protocol: Peripheral wells were filled with sterile water to minimize the effects of evaporation. Plates were incubated for ˜48 hours at 37° C. with 5% CO2, then 1/10 volume (10 μl according to the manufacturer's instructions. Fluorescence was measured using a VICTOR X3 multilabel plate reader (PerkinElmer, Waltham, Mass.). Background fluorescence was subtracted from fluorescence of all experimental wells. The effect of each drug concentration on viability was calculated as a percentage of the result for vehicle-treated cells. […] IC50 (concentration that inhibits growth by 50%) values were calculated using CompuSyn software (ComboSyn, Paramus, N.J.). […] In Table 1, KOPN8 and MOLM14 cell lines were treated with a range of concentrations of each drug for 48 h then cytotoxicity was measured via alamarBlue assay. Results were normalized to cells treated with vehicle (≦0.5% DMSO) alone. IC50s were calculated using CompuSyn software and represent the means of at least three experiments performed in triplicate. […] Drug interactions were typically most favorable (more additive/synergistic or less antagonistic) at higher doses.

CO[C@@H]1[C@H](N(C)C(=O)c2ccccc2)C[C@H]2O[C@]1(C)n1c3ccccc3c3c4c(c5c6ccccc6n2c5c31)C(=O)NC4 [MID, midostaurin]
IC50: 11 nM
